The text below walks through data of patent US20110195021A1 (IMMUNOGEN, published 2011).

No constants are given. Whether binding was seen depends on the method and setting. Some entries that bind do so weakly or less than the wild type.

The target of the assay is T1, human CD20 (human, UniProt P11836 1-297).
T1 construct: whole, on cells; also called wild type CD20; MS4A1
T1 sequence (looked up): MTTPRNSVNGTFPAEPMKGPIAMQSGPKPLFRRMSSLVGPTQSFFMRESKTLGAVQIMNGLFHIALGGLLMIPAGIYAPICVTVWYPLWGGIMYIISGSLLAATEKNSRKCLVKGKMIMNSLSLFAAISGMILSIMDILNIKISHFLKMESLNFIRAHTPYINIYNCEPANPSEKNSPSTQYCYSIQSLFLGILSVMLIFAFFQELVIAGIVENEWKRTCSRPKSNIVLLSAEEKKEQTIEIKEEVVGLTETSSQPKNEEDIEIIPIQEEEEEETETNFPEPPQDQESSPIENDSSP
Description: flow cytometry on BJAB cells. (In general: Flow cytometry measures light scatter and fluorescence of single cells or particles in a stream.)

B1: chCD20-7 (antibody, V domains shown)
VH: QLQLVQSGPELKKPGETVKISCKASGYSFTNYGMNWVKQAPGKGLKWMGWINTYTGEPSYADDFKGRFAFSLETSASTAYLQISNLKNEDTATYFCARGAYYRYDLGMDYWGQGTSVTVSS
VL: DIVLTQSPASLAVSLGQRATISCRASGSVDSFGNSFMHWYQQKPGQPPKLLIYRASNLESGVPARFSGGGSRTDFTLTINPVEADDIATYFCQQSYEDPFTFGAGTKLELMR
notes: Chimeric antibody: CD20-7 variable regions cloned into pchCD20-7HCN and pchCD20-7LCZ and expressed in HEK-293T cells; also called chimeric CD20-7
For B1, the binding entry is “binds”.
